These results are taken from article PMC8129077.

Sequences of proteins named here, by UniProt entry; tags and fusion partners are left off.
UniProt P37238: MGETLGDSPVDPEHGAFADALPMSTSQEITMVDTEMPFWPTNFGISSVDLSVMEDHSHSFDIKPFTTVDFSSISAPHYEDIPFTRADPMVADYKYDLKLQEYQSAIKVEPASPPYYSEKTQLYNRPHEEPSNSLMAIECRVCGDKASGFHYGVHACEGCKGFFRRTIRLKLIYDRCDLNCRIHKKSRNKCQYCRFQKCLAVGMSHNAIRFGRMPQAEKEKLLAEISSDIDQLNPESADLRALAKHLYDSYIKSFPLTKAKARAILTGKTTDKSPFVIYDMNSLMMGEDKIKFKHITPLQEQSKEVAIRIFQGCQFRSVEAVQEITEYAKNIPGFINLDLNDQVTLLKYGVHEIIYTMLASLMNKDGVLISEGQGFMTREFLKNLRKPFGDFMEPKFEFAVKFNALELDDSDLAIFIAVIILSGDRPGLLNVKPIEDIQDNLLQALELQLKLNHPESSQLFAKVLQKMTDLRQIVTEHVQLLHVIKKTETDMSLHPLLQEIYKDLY

This assay addresses p62 (encoded by Sqstm1), endogenous (mouse (endogenous in brown adipocytes)) (UniProt Q64337). Kind of assay: co-IP; endogenous proteins; nuclear lysates (3–4 mg) of brown adipocytes treated with ISO and rosiglitazone; IP with anti-p62 or anti-PPARγ and protein G agarose, overnight at 4 °C; washed with BC300 buffer (50 mM Tris-HCl pH 7.9, 300 mM KCl, 2 mM EDTA, 10% glycerol, 0.1% NP-40).

No constants are given. Whether binding was seen depends on the method and setting. In cells and extracts the contact can be indirect. Some results given as binding are weak or reduced against the parent protein; the word gives no strength.

With “peroxisome proliferator-activated receptor γ (PPARγ), endogenous (from UniProt P37238 1-505)”, the binding result is reported as “binds”.
